Assay results: article PMC6255327 (Molecules, 2009)

Experiment: general procedure: solution-phase peptide synthesis; DCC/HOSu; (Boc)Phe 2,4,5-trichlorophenyl ester
Conditions: coupling step, hydrochloride

Substance: N,N',N,N’-tetrakis(Boc-L-phenylalanyl-3-aminopropyl)-L-α,δ-diaminobutanol
- step yield: 71%

Substance: N,N',N,N’-tetrakis(Boc-L-phenylalanyl-3-aminopropyl)-L-α,δ-diaminopentanol
- step yield: 54%

Substance: N,N',N,N’-tetrakis(Boc-L-phenylalanyl-3-aminopropyl)-L-α,δ-diaminopropanol
- step yield: 66%

Substance: N,N',N,N’-tetrakis(Boc-L-phenylalanyl-3-aminopropyl)-L-α,ε-diaminohexanol
- step yield: 73.5%
